This passage reports binding results from publication PMC5079582.

These are yes or no findings as the source states them, for the method shown. Binding seen in cells or lysates may run through a third protein. Where a sequence is shown, tags or fusion partners need not be part of it.

The target of assay [1] is GFP-DSP4, expressed in N. benthamiana (Arabidopsis). As to the kind of experiment: co-IP; in vitro translated DSP3-MYC added to N. benthamiana protein extracts containing GFP-tagged proteins or GFP; western blot (paper: Co-IP/pull down).
Assay [2] deals with GFP-DSP4, in transgenic Arabidopsis (Arabidopsis). The experiment in a line: co-IP; protein extracts of F1 Arabidopsis harboring two transgenes (GFP-DSP1/MYC-CPSF73-I, GFP-DSP1/MYC-DSP4, GFP-DSP4/MYC-CPSF73-I); IP with anti-GFP antibodies, western blot.

B1: DSP3-MYC, in vitro translated (protein, UniProt Q8VZA0 1-936)
chain: MTSSMEEDDSISPESISLDTLASIRSLIINADTSDSVISSVFDFLTGLLSRGNSAILHHVLKLLSDLAFRRKELAPQIFDSILSNLLRLHNTVAEASHERAAVESLAVLASLSERTPSIAAALSKIDDEVFASICLGAPISSRLWLLRNADRFNVPSSVLFTLFLGFSKDPYPYIRKVALDGLINICNAGDFNHTHAVEGCYTRAVELLSDAEDSVRSSAVRAVSVWGKVMIASKEEEMNRRDCTDAVFLQLCSVVRDMSVDVRVEVFKAFGIIGTASESIILQTLSKKVLGAGKGKKPQNLLSNGSADVSSAAGVYIHGFEDEFYEVREAAVDSFHSLSVNSIKFPDEAVYLLMDMLYDDYMVVRLKALKALHHIADLGNLKIQETYMPAFLDAIVDTSENIRVEARNILKLAKLPDLKLVNKCIDGVLKSLEMYPQDEPDILSALFHFGQNHTNFLVSMVKRFSEKLGTASGSKAEFNSRQLSASLTLIISAPLSNKQSITSIPPLAFSYSLAMLGKFSSGLHDMMDQDMLLAYLTHCAILSSSSGTEFNKGDVFFHAYRDSNADLAGNPVLLPGKDIPAESKYMACKAELEIGNQALKFVNHILLKIKAAWLLSQSGCSKEALRALRACKQELATLTADSSISKGTLDFICQYVHVIELLVQVWPHFNYSRHISTCSSVEVELLMEEVEIKLMEIRCRFTGLSTEESLVLELVIFGCLLRLYKFEICCRLSCMEKLSSTISQLELHHEQQCTKPSDFLTETKKSLEEFGSSDDINSCRLLDLIKIFKCFSPEQFTFSVNLQCVSAEVEVPGNGPYSPISFVPGLPVAIPCEITLLNVPRDTCLWLRISRNDETCQFVYLDPNLYNGNGREKRFMFTAVTYMTPRAVVFTLRVSIGIECLFEDICYRKQRHGPKHPVAYLCKEREIHLSLVSRT
As for B1, the binding entry in assay [1] was “no binding”.

B2: MYC-CPSF73-I, in transgenic Arabidopsis (enzyme, UniProt Q9C952 1-693)
chain: MASSSTSLKRREQPISRDGDQLIVTPLGAGSEVGRSCVYMSFRGKNILFDCGIHPAYSGMAALPYFDEIDPSSIDVLLITHFHIDHAASLPYFLEKTTFNGRVFMTHATKAIYKLLLTDYVKVSKVSVEDMLFDEQDINKSMDKIEVIDFHQTVEVNGIKFWCYTAGHVLGAAMFMVDIAGVRILYTGDYSREEDRHLRAAELPQFSPDICIIESTSGVQLHQSRHIREKRFTDVIHSTVAQGGRVLIPAFALGRAQELLLILDEYWANHPDLHNIPIYYASPLAKKCMAVYQTYILSMNDRIRNQFANSNPFVFKHISPLNSIDDFNDVGPSVVMATPGGLQSGLSRQLFDSWCSDKKNACIIPGYMVEGTLAKTIINEPKEVTLMNGLTAPLNMQVHYISFSAHADYAQTSTFLKELMPPNIILVHGEANEMMRLKQKLLTEFPDGNTKIMTPKNCESVEMYFNSEKLAKTIGRLAEKTPDVGDTVSGILVKKGFTYQIMAPDELHVFSQLSTATVTQRITIPFVGAFGVIKHRLEKIFESVEFSTDEESGLPALKVHERVTVKQESEKHISLQWSSDPISDMVSDSIVALILNISREVPKIVMEEEDAVKSEEENGKKVEKVIYALLVSLFGDVKLGENGKLVIRVDGNVAQLDKESGEVESEHSGLKERVRVAFERIQSAVKPIPLSAS
Turning to B2, the binding entry in assay [2] is given as “no binding”.
